Assay results: US20080194574A1, “Pyrazine Derivatives As Effective Compounds Against Infectious Diseases” (AXXIMA PHARMACEUTICALS AG, priority 2003, published 2008)
For at least one compound, name, drawing or mass did not settle the structure. Some results were stated once for a whole list of compounds, not compound by compound.

Sequences of proteins named here, by UniProt entry; tags and fusion partners are left off. Residues count along the entry.
UniProt P09619, 33-1106, species assumed: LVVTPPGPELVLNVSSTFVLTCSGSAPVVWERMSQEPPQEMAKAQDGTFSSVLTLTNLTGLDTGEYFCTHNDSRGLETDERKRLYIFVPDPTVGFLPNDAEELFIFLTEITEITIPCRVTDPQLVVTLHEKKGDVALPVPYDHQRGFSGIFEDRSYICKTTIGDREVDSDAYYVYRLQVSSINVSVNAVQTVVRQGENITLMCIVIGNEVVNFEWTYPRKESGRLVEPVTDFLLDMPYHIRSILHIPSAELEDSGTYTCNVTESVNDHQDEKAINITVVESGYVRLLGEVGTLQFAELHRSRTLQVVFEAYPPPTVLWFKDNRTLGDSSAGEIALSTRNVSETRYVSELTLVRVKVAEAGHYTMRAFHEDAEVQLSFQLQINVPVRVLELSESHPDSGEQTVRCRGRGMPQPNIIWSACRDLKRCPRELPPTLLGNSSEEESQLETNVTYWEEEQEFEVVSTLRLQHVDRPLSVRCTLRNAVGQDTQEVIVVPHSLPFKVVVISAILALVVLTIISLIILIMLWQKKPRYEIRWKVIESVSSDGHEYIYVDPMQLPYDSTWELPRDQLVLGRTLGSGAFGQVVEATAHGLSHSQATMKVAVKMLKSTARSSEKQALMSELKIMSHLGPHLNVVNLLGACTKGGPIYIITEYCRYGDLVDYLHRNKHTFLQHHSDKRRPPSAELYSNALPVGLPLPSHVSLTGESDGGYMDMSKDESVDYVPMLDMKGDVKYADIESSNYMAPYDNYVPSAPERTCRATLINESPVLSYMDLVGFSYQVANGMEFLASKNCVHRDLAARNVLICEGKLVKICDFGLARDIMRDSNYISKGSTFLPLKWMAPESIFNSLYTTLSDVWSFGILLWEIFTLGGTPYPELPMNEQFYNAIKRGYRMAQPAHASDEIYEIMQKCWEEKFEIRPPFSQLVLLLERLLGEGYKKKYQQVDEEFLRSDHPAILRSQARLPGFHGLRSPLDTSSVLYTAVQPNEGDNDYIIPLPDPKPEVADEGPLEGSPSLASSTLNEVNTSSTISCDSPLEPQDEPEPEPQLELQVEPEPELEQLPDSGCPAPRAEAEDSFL
UniProt O43353, whole entry, species assumed: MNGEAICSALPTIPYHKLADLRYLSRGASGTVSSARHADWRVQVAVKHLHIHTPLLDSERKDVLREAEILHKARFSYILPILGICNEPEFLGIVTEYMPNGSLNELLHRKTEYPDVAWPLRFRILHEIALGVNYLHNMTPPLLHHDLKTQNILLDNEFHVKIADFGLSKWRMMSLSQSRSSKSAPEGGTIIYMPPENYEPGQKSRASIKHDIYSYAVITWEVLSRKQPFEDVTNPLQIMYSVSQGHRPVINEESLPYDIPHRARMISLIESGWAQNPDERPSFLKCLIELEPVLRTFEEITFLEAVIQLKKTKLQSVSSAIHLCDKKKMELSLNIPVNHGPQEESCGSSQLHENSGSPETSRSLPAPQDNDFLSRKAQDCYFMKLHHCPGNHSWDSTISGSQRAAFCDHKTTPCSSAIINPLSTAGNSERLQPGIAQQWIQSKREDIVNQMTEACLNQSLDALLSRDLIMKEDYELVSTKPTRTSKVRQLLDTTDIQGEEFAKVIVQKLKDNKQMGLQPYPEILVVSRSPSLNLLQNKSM
UniProt P10721, 26-976: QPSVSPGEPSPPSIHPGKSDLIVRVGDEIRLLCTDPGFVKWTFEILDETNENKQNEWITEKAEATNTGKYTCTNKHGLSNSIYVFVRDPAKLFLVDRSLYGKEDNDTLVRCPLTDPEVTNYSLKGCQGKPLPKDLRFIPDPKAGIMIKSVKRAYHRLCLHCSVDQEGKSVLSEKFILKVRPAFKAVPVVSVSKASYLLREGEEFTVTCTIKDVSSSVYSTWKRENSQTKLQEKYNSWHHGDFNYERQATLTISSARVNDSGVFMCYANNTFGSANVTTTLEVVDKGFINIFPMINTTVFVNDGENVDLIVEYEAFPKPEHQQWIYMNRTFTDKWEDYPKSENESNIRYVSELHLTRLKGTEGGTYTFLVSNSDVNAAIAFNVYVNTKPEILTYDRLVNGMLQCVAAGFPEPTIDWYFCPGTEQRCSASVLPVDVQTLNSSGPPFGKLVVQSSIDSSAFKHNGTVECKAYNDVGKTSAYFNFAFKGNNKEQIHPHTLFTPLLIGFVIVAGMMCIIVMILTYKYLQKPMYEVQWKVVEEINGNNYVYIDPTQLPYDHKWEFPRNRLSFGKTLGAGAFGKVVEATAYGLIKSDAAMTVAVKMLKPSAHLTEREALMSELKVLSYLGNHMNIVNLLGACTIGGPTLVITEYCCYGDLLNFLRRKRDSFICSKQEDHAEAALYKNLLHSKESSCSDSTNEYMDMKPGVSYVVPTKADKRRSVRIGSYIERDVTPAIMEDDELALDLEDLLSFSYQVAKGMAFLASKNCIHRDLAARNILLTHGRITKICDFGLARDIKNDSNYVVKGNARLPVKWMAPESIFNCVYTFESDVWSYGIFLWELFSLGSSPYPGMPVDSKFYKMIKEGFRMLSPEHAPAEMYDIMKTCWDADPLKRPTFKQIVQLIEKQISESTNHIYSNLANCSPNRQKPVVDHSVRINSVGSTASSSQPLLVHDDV
UniProt P50750, whole entry, species assumed: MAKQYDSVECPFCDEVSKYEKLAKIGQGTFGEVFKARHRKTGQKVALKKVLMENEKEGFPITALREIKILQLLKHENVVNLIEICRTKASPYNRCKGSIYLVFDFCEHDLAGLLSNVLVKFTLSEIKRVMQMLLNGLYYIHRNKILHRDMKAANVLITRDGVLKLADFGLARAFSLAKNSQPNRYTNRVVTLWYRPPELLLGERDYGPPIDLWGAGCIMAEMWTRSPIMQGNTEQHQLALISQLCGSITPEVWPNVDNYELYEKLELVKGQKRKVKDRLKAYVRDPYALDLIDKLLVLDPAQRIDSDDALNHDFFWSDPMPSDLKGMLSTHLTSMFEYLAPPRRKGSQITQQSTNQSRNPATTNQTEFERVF
UniProt P06239, whole entry, species assumed: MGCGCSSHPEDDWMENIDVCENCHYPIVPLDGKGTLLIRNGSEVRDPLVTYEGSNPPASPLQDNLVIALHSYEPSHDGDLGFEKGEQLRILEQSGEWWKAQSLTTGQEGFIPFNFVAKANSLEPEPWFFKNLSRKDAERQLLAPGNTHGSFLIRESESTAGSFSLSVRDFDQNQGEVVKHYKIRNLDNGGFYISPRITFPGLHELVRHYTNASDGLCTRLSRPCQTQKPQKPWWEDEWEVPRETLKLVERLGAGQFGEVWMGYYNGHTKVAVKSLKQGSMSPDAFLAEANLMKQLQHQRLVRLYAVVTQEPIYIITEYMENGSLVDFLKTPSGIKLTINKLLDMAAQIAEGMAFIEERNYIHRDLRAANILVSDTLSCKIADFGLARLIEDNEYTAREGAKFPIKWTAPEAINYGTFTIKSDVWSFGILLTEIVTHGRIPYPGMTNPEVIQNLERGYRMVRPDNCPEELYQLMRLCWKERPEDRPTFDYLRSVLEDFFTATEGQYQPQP

target: PDGFRbeta (Homo sapiens, UniProt P09619); assay: General kinase assay protocol (33P-ATP, MBP substrate, filter plate): PDGFRbeta; type: biochemical; conditions: inhibition at concentration 10 μM

SMILES	Inhibitory effect on Target PDGFRbeta
COc1cc(Nc2cncc(-c3ccc(O)cc3)n2)cc(OC)c1OC [Comp. 396]	++ (++ = >75% inhibition at concentration 10 μM)

target: RICK (Homo sapiens, UniProt O43353); assay: General kinase assay protocol (33P-ATP, MBP substrate, filter plate): RICK; type: biochemical; conditions: inhibition at concentration 10 μM
Excerpt: (§1) General Assay Protocol for all Kinases
(§2) (For UL97 a special UL97 kinase assay was used as described below.)

SMILES	Inhibitory effect on Target RICK
Nc1cccc(-c2cncc(Nc3cccc(Cl)c3)n2)c1 [Comp. 379]	++ (++ = >75% inhibition at concentration 10 μM)
COc1cc(Nc2cncc(-c3ccc(O)cc3)n2)cc(OC)c1OC [Comp. 396]	++ (++ = >75% inhibition at concentration 10 μM)
COc1cc(Nc2cncc(-c3ccc(C(C)C)cc3)n2)cc(OC)c1OC [compound 376]	+ (+ = >50% inhibition at concentration 10 μM)
CN(C)CCNC(=O)c1cccc(-c2cncc(Nc3ccc(F)c(Cl)c3)n2)c1 [compound 383]	+ (+ = >50% inhibition at concentration 10 μM)
COc1ccc(-c2cncc(Nc3cccc(C(F)(F)F)c3)n2)cc1 [compound 384]	+ (+ = >50% inhibition at concentration 10 μM)
Clc1cccc(Nc2cncc(-c3cccc(Cl)c3)n2)c1 [compound 385]	+ (+ = >50% inhibition at concentration 10 μM)
CC(=O)Nc1cccc(-c2cncc(Nc3ccc(Cl)cc3)n2)c1 [compound 387]	+ (+ = >50% inhibition at concentration 10 μM)
N#Cc1cccc(Nc2cncc(-c3ccc(N)cc3)n2)c1 [compound 389]	+ (+ = >50% inhibition at concentration 10 μM)
CCOc1ccc(-c2cncc(Nc3cc(OC)c(OC)c(OC)c3)n2)cc1 [compound 392]	++ (++ = >75% inhibition at concentration 10 μM)
CN(C)c1cccc(-c2cncc(Nc3ccccc3)n2)c1 [compound 395]	+ (+ = >50% inhibition at concentration 10 μM)
OCc1cccc(-c2cncc(Nc3ccccc3)n2)c1 [compound 400]	+ (+ = >50% inhibition at concentration 10 μM)
CC(=O)Nc1cccc(-c2cncc(Nc3ccc(F)c(Cl)c3)n2)c1 [compound 405]	+ (+ = >50% inhibition at concentration 10 μM)
NC(=O)c1ccc(-c2cncc(Nc3ccccc3)n2)cc1 [compound 406]	+ (+ = >50% inhibition at concentration 10 μM)
COc1cc(Nc2cncc(-c3ccc(F)cc3F)n2)cc(OC)c1OC [compound 407]	++ (++ = >75% inhibition at concentration 10 μM)
Nc1ccc(-c2cncc(Nc3cccc(Cl)c3)n2)cc1 [compound 408]	+ (+ = >50% inhibition at concentration 10 μM)
Cc1ccc(Nc2cncc(-c3cccc(N(C)C)c3)n2)cc1NS(C)(=O)=O [compound 409]	+ (+ = >50% inhibition at concentration 10 μM)
NC(=O)c1ccc(-c2cncc(Nc3cccc(Cl)c3)n2)cc1 [compound 412]	+ (+ = >50% inhibition at concentration 10 μM)
COc1cc(Nc2cncc(-c3ccc(C(N)=O)cc3)n2)cc(OC)c1OC [compound 414]	+ (+ = >50% inhibition at concentration 10 μM)

SMILES	Inhibitory effect on Target RICK
CC(=O)Nc1cccc(-c2cncc(Nc3ccccc3)n2)c1 [compound 416]	+ (+ = >50% inhibition at concentration 10 μM)
CC(=O)Nc1cccc(-c2cncc(Nc3cccc(C(F)(F)F)c3)n2)c1 [compound 418]	+ (+ = >50% inhibition at concentration 10 μM)
COc1cc(-c2cncc(Nc3ccc(Cl)cc3)n2)cc(OC)c1OC [compound 419]	+ (+ = >50% inhibition at concentration 10 μM)
N#Cc1cccc(Nc2cncc(-c3cccc(N)c3)n2)c1 [compound 421]	+ (+ = >50% inhibition at concentration 10 μM)
COc1ccc(C(C)C)cc1-c1cncc(Nc2cccc(C#N)c2)n1 [compound 422]	+ (+ = >50% inhibition at concentration 10 μM)
Cc1ccc(Nc2cncc(-c3ccc4ccccc4c3)n2)cc1NS(C)(=O)=O [compound 424]	+ (+ = >50% inhibition at concentration 10 μM)
Nc1ncc(-c2ccc(N3CCOCC3)cc2)nc1Nc1ccc2[nH]ccc2c1 [compound 426]	+ (+ = >50% inhibition at concentration 10 μM)
Nc1cccc(-c2cnc(N)c(Nc3ccc4[nH]ccc4c3)n2)c1 [compound 427]	+ (+ = >50% inhibition at concentration 10 μM)
CN(C)c1cccc(-c2cnc(N)c(Nc3ccc4[nH]ccc4c3)n2)c1 [compound 429]	++ (++ = >75% inhibition at concentration 10 μM)
CS(=O)(=O)c1ccc(-c2cnc(N)c(Nc3ccc4[nH]ccc4c3)n2)cc1 [compound 430]	++ (++ = >75% inhibition at concentration 10 μM)
COc1ccc(C(C)C)cc1-c1cnc(N)c(Nc2ccc3[nH]ccc3c2)n1 [compound 431]	+ (+ = >50% inhibition at concentration 10 μM)
Nc1ncc(-c2cccc3ncccc23)nc1Nc1ccc2[nH]ccc2c1 [compound 433]	++ (++ = >75% inhibition at concentration 10 μM)
COc1ccc(Nc2nc(-c3cccc(C(=O)O)c3)cnc2N)cc1 [compound 434]	+ (+ = >50% inhibition at concentration 10 μM)
COc1ccc(Nc2nc(-c3ccc(S(C)(=O)=O)cc3)cnc2N)cc1 [compound 435]	++ (++ = >75% inhibition at concentration 10 μM)
COc1ccc(Nc2nc(-c3cccc(/C=C/C(=O)O)c3)cnc2N)cc1 [compound 436]	+ (+ = >50% inhibition at concentration 10 μM)
COc1ccc(Nc2nc(-c3cccc(Br)c3)cnc2N)cc1 [compound 437]	++ (++ = >75% inhibition at concentration 10 μM)
COc1ccc(Nc2nc(-c3cccc(CO)c3)cnc2N)c(C)c1 [compound 439]	++ (++ = >75% inhibition at concentration 10 μM)
COc1ccc(Nc2nc(-c3cccc(C(N)=O)c3)cnc2N)c(C)c1 [compound 440]	++ (++ = >75% inhibition at concentration 10 μM)

target: c-Kit (Homo sapiens, UniProt P10721); assay: General kinase assay protocol (33P-ATP, MBP substrate, filter plate): c-Kit; type: biochemical; conditions: inhibition at concentration 10 μM

SMILES	Inhibitory effect on Target c-Kit
COc1cc(Nc2cncc(-c3ccc(O)cc3)n2)cc(OC)c1OC [Comp. 396]	++ (++ = >75% inhibition at concentration 10 μM)

target: CDK9 (Homo sapiens, UniProt P50750); assay: General kinase assay protocol (33P-ATP, MBP substrate, filter plate): CDK9; type: biochemical; conditions: inhibition at concentration 10 μM
Method: as §1, §2
Final Assay Concentrations:
• 1) Add 8 μl 50 μM MBP in Reaction Buffer to each well of Assay Plate • 2) Add 10 μl 500 mM EDTA in H2O to C− wells • 3) Add 8 μl 62.5 μCi/ml Adenosine 5′-[γ-^33P]triphosphate+5 μM ATP in Reaction Buffer to each well • 4) Add 8 μl 5 fold concentrated inhibitor in 5% DMSO in Reaction Buffer to each well except to C− and C+ wells • 5) Add 8 μl 5% DMSO in Reaction Buffer to C− and C+wells • 6) Add 8 μl 5 fold concentrated kinase in Reaction Buffer to each well • 7) Incubate 1 hr at room temperature • 8) Add 10 μl 50 mM EDTA in H2O to each well except to C− wells • 9) Prepare MAPH plates by adding 200 μl 0.75% H3PO4 to each well • 10) Exhaust 0.75% H3PO4 using Millipore vacuum station • 11) Add 60 μl 0.75% H3PO4 to each well of MAPH Filter Plate • 12) Transfer 30 μl sample per well from Assay Plate to corresponding well of MAPH Filter Plate • 13) Incubate 30 min at room temperature • 14) Wash each well of MAPH Filter Plates 3× with 200 μl 0.75% H3PO4 using Millipore vacuum station • 15) Add 20 μl Szintilation Liquid to each well of MAPH Filter Plate • 16) Seal MAPH Filter Plate • 17) Store MAPH Filter Plate 30 min in darkness • 18) Quantify radioactivity

SMILES	Inhibitory effect on Target CDK9
COc1ccc(-c2cncc(Nc3ccc4c(c3)OC(F)(F)C(F)(F)O4)n2)cc1 [Comp. 377]	+ (+ = >50% inhibition at concentration 10 μM)
Oc1cccc(-c2cncc(Nc3ccc4c(c3)OC(F)(F)C(F)(F)O4)n2)c1 [compound 378]	+ (+ = >50% inhibition at concentration 10 μM)
CN(C)CCNC(=O)c1cccc(-c2cncc(Nc3ccc(F)c(Cl)c3)n2)c1 [compound 383]	+ (+ = >50% inhibition at concentration 10 μM)
N#Cc1cccc(Nc2cncc(-c3ccc(N)cc3)n2)c1 [compound 389]	+ (+ = >50% inhibition at concentration 10 μM)
N#Cc1ccc(Nc2cncc(-c3ccc(N)cc3)n2)cc1 [compound 413]	+ (+ = >50% inhibition at concentration 10 μM)

target: p56Lck (Homo sapiens, UniProt P06239); assay: General kinase assay protocol (33P-ATP, MBP substrate, filter plate): p56Lck; type: biochemical; conditions: inhibition at concentration 10 μM

SMILES	Inhibitory effect on Target p56Lck
COc1cc(Nc2cncc(-c3ccc(O)cc3)n2)cc(OC)c1OC [Comp. 396]	++ (++ = >75% inhibition at concentration 10 μM)

target: EGFR (Homo sapiens, UniProt P00533); assay: General kinase assay protocol (33P-ATP, MBP substrate, filter plate): EGFR; type: biochemical; conditions: inhibition at concentration 10 μM

SMILES	Inhibitory effect on Target EGFR
COc1cc(Nc2cncc(-c3ccc(O)cc3)n2)cc(OC)c1OC [Comp. 396]	+ (+ = >50% inhibition at concentration 10 μM)
